PubChem BioAssay AID1259308 | NCATS, 2017
Aim: 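Knock-downs that increase output of a recombinant reporter protein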 (primary screen). Cell system: human HEK293 embryonic kidney cells stably expressing firefly luciferase (HEK-CMV-Luc2-Hygro). Reagent: single siRNA against human genes, 0.8 pmol siRNA per well. Timing: 72 h. Measured: 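Reporter luminescence and viable-cell signal on separate replicate plates, given as percent of non-targeting control and median/MAD z-scores, plus per-cell luciferase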. Scale: total luciferase, z-score and total luciferase, % of control: higher = more reporter protein produced; luciferase per cell, z-score: higher = more reporter output per viable cell. Rule for the call: 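Active when the median/MAD z-score for overall luciferase is greater than 3; a gene was taken forward for validation with new siRNAs if at least two of its three siRNAs passed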. Calls: active = raised luciferase; inactive = no rise.
The deposit covers about 59,000 reagents; shown is a part drawn at random. In the full data, about 1,510 (2.6%) were called active. 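Calls use total luciferase alone and ignore viability, so some active siRNAs may act by altering cell number.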 Entries without a mark were called inactive. Reagents against one gene are numbered here. Not all columns of the deposit are shown.

| gene knocked down | siRNA no. | total luciferase, z-score | total luciferase, % of control | luciferase per cell, z-score |
| --- | --- | --- | --- | --- |
| HSPBP1 (HSPA (Hsp70) binding protein 1) | 1 | 0.236 | 86.6 | 0.654 |
| HSPBP1 (HSPA (Hsp70) binding protein 1) | 2 | 0.613 | 94.1 | 0.149 |
| HSPBP1 (HSPA (Hsp70) binding protein 1) | 3 | 0.0869 | 83.6 | -0.305 |
| EFHD2 (EF-hand domain family member D2) | 1 | -0.182 | 78.3 | -0.178 |
| EFHD2 (EF-hand domain family member D2) | 2 | -0.256 | 76.8 | -0.638 |
| EFHD2 (EF-hand domain family member D2) | 3 | 0.749 | 96.8 | 0.769 |
| KDELR1 (KDEL endoplasmic reticulum protein retention receptor 1) | 1 | -0.182 | 78.3 | -0.00803 |
| KDELR1 (KDEL endoplasmic reticulum protein retention receptor 1) | 2 | -0.506 | 71.8 | -0.684 |
| KDELR1 (KDEL endoplasmic reticulum protein retention receptor 1) | 3 | 0.444 | 90.7 | 0.223 |
| DELEC1 (deleted in esophageal cancer 1) | 1 | 0.552 | 92.9 | 0.133 |
| DELEC1 (deleted in esophageal cancer 1) | 2 | -0.91 | 63.8 | -0.677 |
| DELEC1 (deleted in esophageal cancer 1) | 3 | -0.359 | 74.7 | 0.198 |
| TAF1B | 1 | -0.0457 | 81 | -0.283 |
| TAF1B | 2 | 0.516 | 92.1 | 1.93 |
| TAF1B | 3 | -0.694 | 68.1 | 0.993 |
| PLCXD2 | 1 | -0.0759 | 80.4 | -0.0566 |
| PLCXD2 | 2 | 0.542 | 92.7 | 0.164 |
| PLCXD2 | 3 | 0.0426 | 82.7 | -0.149 |
| COLEC12 (collectin subfamily member 12) | 1 | -1.24 | 57.3 | -0.957 |
| COLEC12 (collectin subfamily member 12) | 2 | 1.15 | 105 | 1.1 |
| COLEC12 (collectin subfamily member 12) | 3 | 0.254 | 86.9 | -0.198 |
| LINC01300 (long independently transcribed non-coding RNA 1300) | 1 | 1.47 | 111 | 1.33 |
| LINC01300 (long independently transcribed non-coding RNA 1300) | 2 | -0.156 | 78.8 | 0.76 |
| LINC01300 (long independently transcribed non-coding RNA 1300) | 3 | 0.268 | 87.2 | 0.614 |
| SCN11A (sodium voltage-gated channel alpha subunit 11) | 1 | 0.874 | 99.3 | 0.78 |
| SCN11A (sodium voltage-gated channel alpha subunit 11) | 2 | -0.412 | 73.7 | -0.516 |
| SCN11A (sodium voltage-gated channel alpha subunit 11) | 3 | 1.41 | 110 | 0.0643 |
| ITGAL (integrin subunit alpha L) | 1 | 1.73 | 116 | 1.73 |
| ITGAL (integrin subunit alpha L) | 2 | -0.692 | 68.1 | -0.706 |
| ITGAL (integrin subunit alpha L) | 3 | -2.36 | 34.9 | -1.6 |
| PRKCH (protein kinase C eta) | 1 | 0.0268 | 82.4 | 0.755 |
| PRKCH (protein kinase C eta) | 2 | -0.326 | 75.4 | -0.49 |
| PRKCH (protein kinase C eta) | 3 | 1.18 | 105 | 0.91 |
| SPDYC (speedy/RINGO cell cycle regulator family member C) | 1 | 0 | 81.9 | -0.39 |
| SPDYC (speedy/RINGO cell cycle regulator family member C) | 2 | -1.45 | 53 | 0.341 |
| SPDYC (speedy/RINGO cell cycle regulator family member C) | 3 | -0.205 | 77.8 | -0.0105 |
| CPNE3 (copine 3) | 1 | 0.554 | 92.9 | 0.437 |
| CPNE3 (copine 3) | 2 | -0.903 | 63.9 | -1.24 |
| CPNE3 (copine 3) | 3 | 0.395 | 89.7 | -0.0474 |
| AHSG (alpha 2-HS glycoprotein) | 1 | -0.581 | 70.3 | -1.02 |
| AHSG (alpha 2-HS glycoprotein) | 2 | -0.357 | 74.8 | -0.413 |
| AHSG (alpha 2-HS glycoprotein) | 3 | 0.812 | 98 | 1.14 |
| TBX6 (T-box transcription factor 6) | 1 | 0.168 | 85.2 | 0.226 |
| TBX6 (T-box transcription factor 6) | 2 | 1.9 | 120 | 1.27 |
| TBX6 (T-box transcription factor 6) | 3 | 3.21 (active) | 146 | 2.51 |
| KDM6B (lysine demethylase 6B) | 1 | 0.728 | 96.4 | 1.13 |
| KDM6B (lysine demethylase 6B) | 2 | 2.76 | 137 | 1.91 |
| KDM6B (lysine demethylase 6B) | 3 | -1.08 | 60.3 | -0.676 |
| IGFBP7 (insulin like growth factor binding protein 7) | 1 | 0.165 | 85.2 | 0.31 |
| IGFBP7 (insulin like growth factor binding protein 7) | 2 | -0.782 | 66.3 | -0.713 |
| IGFBP7 (insulin like growth factor binding protein 7) | 3 | -0.415 | 73.6 | -0.249 |
| APBB2 (amyloid beta precursor protein binding family B member 2) | 1 | 0.168 | 85.2 | 0.275 |
| APBB2 (amyloid beta precursor protein binding family B member 2) | 2 | -0.0238 | 81.4 | 0.0381 |
| APBB2 (amyloid beta precursor protein binding family B member 2) | 3 | -1.62 | 49.7 | -0.64 |
| PPBPP1 (pro-platelet basic protein pseudogene 1) | 1 | 1.69 | 116 | 2.76 |
| PPBPP1 (pro-platelet basic protein pseudogene 1) | 2 | -0.564 | 70.7 | -0.62 |
| PPBPP1 (pro-platelet basic protein pseudogene 1) | 3 | -0.223 | 77.4 | -0.375 |
